Results are given in words; binding and its absence hold for the method and conditions named. Binding can be weak; no strength is given.
Columns and labels:
[1] = molecular target: recombinant soluble human IL-6 receptor (SR344) (human); assay: Biacore T100, immobilized biotinylated SR344 (membrane-type IL-6 receptor model)
[2] = molecular target: recombinant soluble human IL-6 receptor (SR344) (human); assay: Biacore T100, SR344 as analyte, pH 7.4
[3] = molecular target: recombinant soluble human IL-6 receptor (SR344) (human); assay: Biacore T100, SR344 as analyte and immobilized biotinylated SR344
[4] = molecular target: recombinant soluble human IL-6 receptor (SR344) (human); assay: Biacore T100, SR344 as analyte, pH 7.4 and pH 5.8
[5] = molecular target: recombinant soluble human IL-6 receptor (SR344) (human); assay: Biacore T100, antibody on protein A/G, ten cycles of SR344 (about 40 nM) at pH 7.4 and exposure to pH 5.8, 37C
[6] = molecular target: recombinant soluble human IL-6 receptor (SR344) (human); assay: Biacore T100, immobilized biotinylated SR344 (membrane IL-6 receptor model)
[7] = molecular target: recombinant soluble human IL-6 receptor (SR344) (human); assay: Biacore, SR344 as analyte and immobilized biotinylated SR344

Row | Binder | binding [1] | binding [2] | binding [3] | binding [4] | binding [5] | binding [6] | binding [7]
1 | H170/L82 (antibody, IgG1, V domains shown) VH: QVQLQESGPGLVKPSETLSLTCAVSGHSISHHHAHSWVRQPPGEGLEWIGYISYSGITHYNPHLKGRVTISRDTSKNQFSLKLSSVTAADTAAYYCARVLARITAMDHWGEGTLVTVSS VL: DIQMTQSPSSLSASVGDSVTITCQASQDISSHLNWYQQKPGKAPELLIYYGSHLHSGVPSRFSGSGSGTDFTFTISSLEAEDAATYYCGQGNRLPYTFGQGTKVEIE |  |  |  | binds | binds | binds | binds
2 | CLH5/L73 (antibody, IgG1, V domains shown) VH: QVQLQESGPGLVKPSETLSLTCAVSGYSISHDHAWSWVRQPPGEGLEWIGHISYSGITNYNPHLKGRVTISRDTSKNQFSLKLSSVTAADTAAYYCARFLARITAHDHWGEGTLVTVSS VL: DIQMTQSPSSLSASVGDSVTITCQASQHISSHLNWYQQKPGKAPELLIYYGSHLHSGVPSRFSGSGSGTDFTFTISSLEAEDAATYYCGQGNRLPYTFGQGTKVEIE |  |  |  |  | binds | binds | 

Other lines, results leading:

Row | binding [1] | binding [2] | binding [3] | binding [4] | binding [5] | binding [6] | binding [7] | Binder
3 | binds | binds |  |  |  |  |  | Fv1-M71 (antibody, human IgG2, kappa) heavy: QVQLQESGPGLVKPSETLSLTCAVSGYSISHDHAWSWVRQPPGEGLEWIGHISYSGITNYNPHLQDRVTISRDTSKNQFSLKLSSVTAADTAVYYCARFLARITAHDHWGEGTLVTVSSASTKGPSVFPLAPCSRSTSESTAALGCLVKDYFPEPVTVSWNSGALTSGVHTFPAVLQSSGLYSLSSVVTVPSSNFGTQTYTCNVDHKPSNTKVDKTVERKCCVECPPCPAPPVAGPSVFLFPPKPKDTLMISRTPEVTCVVVDVSHEDPEVQFNWYVDGVEVHNAKTKPREEQFNSTFRVVSVLTVVHQDWLNGKEYKCKVSNKGLPAPIEKTISKTKGQPREPQVYTLPPSREEMTKNQVSLTCLVKGFYPSDIAVEWESNGQPENNYKTTPPMLDSDGSFFLYSKLTVDKSRWQQGNVFSCSVMHEALHAHYTQKSLSLSPGK light: DIQMTQSPSSLSASVGDSVTITCQASRDISSHLNWYQQKPGKAPELLIYYGSHLESGVPSRFSGSGSGTDFTFTISSLEAEDAATYYCGQGNRLPYTFGQGTKVEIERTVAAPSVFIFPPSDEQLKSGTASVVCLLNNFYPREAKVQWKVDNALQSGNSQESVTEQDSKDSTYSLSSTLTLSKADYEKHKVYACEVTHQGLSSPVTKSFNRGEC
4 | binds | binds |  |  |  |  |  | Fv1-M73 (antibody) heavy: QVQLQESGPGLVKPSETLSLTCAVSGYSISHDHAWSWVRQPPGEGLEWIGHISYSGITNYNPHLQDRVTISRDTSKNQFSLKLSSVTAADTAVYYCARFLARITAHDHWGEGTLVTVSSASTKGPSVFPLAPSSKSTSGGTAALGCLVKDYFPEPVTVSWNSGALTSGVHTFPAVLQSSGLYSLSSVVTVPSSNFGTQTYTCNVDHKPSNTKVDKTVERKSCVECPPCPAPPVAGPSVFLFPPKPKDTLMISRTPEVTCVVVDVSQEDPEVQFNWYVDGVEVHNAKTKPREEQFNSTFRVVSVLTVVHQDWLNGKEYKCKVSNKGLPAPIEKTISKTKGQPREPQVYTLPPSQEEMTKNQVSLTCLVKGFYPSDIAVEWESNGQPENNYKTTPPMLDSDGSFFLYSKLTVDKSRWQEGNVFSCSVMHEALHAHYTQKSLSLSP light: DIQMTQSPSSLSASVGDSVTITCQASRDISSHLNWYQQKPGKAPELLIYYGSHLESGVPSRFSGSGSGTDFTFTISSLEAEDAATYYCGQGNRLPYTFGQGTKVEIERTVAAPSVFIFPPSDEQLKSGTASVVCLLNNFYPREAKVQWKVDNALQSGNSQESVTEQDSKDSTYSLSSTLTLSKADYEKHKVYACEVTHQGLSSPVTKSFNRGEC
5 | binds | binds | binds |  |  |  |  | Fv2-IgG1 (antibody, V domains shown) VH: QVQLQESGPGLVKPSETLSLTCAVSGYSISHDHAWSWVRQPPGEGLEWIGHISYSGITNYNPHLQDRVTISRDTSKNQFSLKLSSVTAADTAAYYCARFLARITAHDHWGEGTLVTVSS VL: DIQMTQSPSSLSASVGDSVTITCQASQDISSHLNWYQQKPGKAPELLIYYGSHLHSGVPSRFSGSGSGTDFTFTISSLEAEDAATYYCGQGNRLPYTFGQGTKVEIE
